The results in this text go back to the supplement of paper PMC12819154, “High-throughput peptide-centric local stability assay extends protein–ligand identification to membrane proteins, tissues and bacteria” (Nature Structural & Molecular Biology, 2025).

Sequences of proteins named here, by UniProt entry; tags and fusion partners are left off. A change or cut given only in a name is not applied to a line headed by its entry.
UniProt Q9GZM5: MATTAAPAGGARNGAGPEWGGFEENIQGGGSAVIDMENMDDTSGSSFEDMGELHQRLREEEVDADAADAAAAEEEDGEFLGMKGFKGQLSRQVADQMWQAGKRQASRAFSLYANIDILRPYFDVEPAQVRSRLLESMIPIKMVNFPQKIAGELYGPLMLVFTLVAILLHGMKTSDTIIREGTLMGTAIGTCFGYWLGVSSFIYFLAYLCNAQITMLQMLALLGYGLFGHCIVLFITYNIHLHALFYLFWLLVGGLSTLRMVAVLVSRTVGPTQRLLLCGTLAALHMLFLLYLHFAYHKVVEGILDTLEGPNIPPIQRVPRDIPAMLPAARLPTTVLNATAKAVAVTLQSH
UniProt Q9H3K6: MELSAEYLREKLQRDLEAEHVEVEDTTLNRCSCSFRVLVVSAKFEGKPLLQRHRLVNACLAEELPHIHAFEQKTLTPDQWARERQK
UniProt Q9GZZ1: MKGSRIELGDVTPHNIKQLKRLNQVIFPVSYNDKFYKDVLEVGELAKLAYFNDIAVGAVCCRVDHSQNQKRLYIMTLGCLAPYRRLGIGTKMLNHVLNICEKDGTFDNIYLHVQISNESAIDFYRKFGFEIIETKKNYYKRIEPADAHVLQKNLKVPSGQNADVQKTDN
UniProt Q9H2Y7: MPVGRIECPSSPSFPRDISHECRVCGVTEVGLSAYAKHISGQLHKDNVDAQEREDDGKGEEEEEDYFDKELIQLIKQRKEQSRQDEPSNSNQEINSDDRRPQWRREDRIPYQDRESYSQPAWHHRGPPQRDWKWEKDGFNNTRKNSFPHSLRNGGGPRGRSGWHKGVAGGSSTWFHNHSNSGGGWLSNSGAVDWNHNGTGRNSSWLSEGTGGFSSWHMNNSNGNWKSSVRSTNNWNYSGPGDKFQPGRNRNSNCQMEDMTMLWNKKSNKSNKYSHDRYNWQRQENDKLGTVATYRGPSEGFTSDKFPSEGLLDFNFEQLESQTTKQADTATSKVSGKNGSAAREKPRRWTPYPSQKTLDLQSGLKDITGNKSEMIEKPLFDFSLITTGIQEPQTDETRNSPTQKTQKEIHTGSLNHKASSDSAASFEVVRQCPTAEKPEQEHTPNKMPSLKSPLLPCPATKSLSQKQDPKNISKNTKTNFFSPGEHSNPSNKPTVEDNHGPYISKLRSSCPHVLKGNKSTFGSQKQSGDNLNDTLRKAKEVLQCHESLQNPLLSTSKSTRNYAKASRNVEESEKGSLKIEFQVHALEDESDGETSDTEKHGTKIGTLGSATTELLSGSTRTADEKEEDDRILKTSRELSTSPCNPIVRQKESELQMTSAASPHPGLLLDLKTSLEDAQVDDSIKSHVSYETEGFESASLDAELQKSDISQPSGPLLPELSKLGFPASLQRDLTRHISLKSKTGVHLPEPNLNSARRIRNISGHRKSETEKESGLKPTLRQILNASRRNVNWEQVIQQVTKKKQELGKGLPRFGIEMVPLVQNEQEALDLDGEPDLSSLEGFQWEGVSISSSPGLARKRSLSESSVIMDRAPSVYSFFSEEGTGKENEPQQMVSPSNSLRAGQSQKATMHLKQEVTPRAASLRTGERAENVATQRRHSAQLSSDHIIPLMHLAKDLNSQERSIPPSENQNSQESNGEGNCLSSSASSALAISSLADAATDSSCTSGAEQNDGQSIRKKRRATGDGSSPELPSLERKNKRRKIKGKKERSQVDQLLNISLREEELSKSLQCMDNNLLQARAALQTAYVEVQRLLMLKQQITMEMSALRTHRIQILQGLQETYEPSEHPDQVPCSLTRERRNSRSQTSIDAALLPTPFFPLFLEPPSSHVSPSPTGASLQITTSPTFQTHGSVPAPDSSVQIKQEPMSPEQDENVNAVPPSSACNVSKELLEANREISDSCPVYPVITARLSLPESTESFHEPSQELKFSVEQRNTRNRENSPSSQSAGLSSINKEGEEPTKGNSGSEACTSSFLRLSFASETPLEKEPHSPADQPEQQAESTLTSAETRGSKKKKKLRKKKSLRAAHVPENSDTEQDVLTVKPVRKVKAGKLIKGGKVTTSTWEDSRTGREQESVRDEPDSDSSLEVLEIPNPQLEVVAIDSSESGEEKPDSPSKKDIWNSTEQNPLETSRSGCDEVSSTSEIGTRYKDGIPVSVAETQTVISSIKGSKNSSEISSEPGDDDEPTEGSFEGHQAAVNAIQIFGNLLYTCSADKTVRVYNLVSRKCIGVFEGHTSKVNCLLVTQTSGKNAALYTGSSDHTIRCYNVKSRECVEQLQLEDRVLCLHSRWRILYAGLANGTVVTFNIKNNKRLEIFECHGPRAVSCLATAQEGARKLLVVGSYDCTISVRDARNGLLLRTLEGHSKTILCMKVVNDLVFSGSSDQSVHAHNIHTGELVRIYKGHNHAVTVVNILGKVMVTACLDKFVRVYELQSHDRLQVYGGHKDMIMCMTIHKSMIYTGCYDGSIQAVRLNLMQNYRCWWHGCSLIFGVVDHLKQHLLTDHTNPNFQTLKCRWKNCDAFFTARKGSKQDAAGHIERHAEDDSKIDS
UniProt Q9GZX9: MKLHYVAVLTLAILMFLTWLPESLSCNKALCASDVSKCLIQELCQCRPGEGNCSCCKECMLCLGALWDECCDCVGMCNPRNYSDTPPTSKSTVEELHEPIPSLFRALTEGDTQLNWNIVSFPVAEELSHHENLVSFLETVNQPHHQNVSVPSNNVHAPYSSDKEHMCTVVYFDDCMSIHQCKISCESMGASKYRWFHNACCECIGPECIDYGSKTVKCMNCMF
UniProt Q9H147: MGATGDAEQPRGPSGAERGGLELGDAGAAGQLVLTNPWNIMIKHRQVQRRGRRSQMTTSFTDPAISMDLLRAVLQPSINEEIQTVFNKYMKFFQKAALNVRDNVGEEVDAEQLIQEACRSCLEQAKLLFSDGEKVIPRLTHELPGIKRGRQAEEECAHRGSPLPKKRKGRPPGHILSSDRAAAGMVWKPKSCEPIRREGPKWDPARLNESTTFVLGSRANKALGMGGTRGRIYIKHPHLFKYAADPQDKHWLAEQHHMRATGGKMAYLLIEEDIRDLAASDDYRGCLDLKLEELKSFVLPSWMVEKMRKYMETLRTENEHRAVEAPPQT
UniProt Q9H2H9: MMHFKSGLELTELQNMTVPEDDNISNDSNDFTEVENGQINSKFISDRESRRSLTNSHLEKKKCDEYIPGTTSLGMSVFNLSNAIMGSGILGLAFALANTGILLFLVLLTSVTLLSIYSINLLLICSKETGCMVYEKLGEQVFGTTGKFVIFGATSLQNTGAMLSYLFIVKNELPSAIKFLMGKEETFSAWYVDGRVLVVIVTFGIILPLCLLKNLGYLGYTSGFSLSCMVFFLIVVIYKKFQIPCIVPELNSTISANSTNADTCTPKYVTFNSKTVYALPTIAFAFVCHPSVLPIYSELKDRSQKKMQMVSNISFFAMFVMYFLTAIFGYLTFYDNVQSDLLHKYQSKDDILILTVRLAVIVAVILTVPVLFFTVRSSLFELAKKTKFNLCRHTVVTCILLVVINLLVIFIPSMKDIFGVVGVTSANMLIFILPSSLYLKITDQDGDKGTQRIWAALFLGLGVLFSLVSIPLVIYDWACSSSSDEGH
UniProt Q9H3N1: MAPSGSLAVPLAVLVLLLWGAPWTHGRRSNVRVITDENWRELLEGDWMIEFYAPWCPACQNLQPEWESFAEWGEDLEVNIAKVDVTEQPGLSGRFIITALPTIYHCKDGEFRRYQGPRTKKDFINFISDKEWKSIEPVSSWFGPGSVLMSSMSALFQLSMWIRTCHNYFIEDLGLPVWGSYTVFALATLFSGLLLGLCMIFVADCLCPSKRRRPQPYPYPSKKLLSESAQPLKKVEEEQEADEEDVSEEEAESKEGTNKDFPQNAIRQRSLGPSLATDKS
UniProt Q9H270: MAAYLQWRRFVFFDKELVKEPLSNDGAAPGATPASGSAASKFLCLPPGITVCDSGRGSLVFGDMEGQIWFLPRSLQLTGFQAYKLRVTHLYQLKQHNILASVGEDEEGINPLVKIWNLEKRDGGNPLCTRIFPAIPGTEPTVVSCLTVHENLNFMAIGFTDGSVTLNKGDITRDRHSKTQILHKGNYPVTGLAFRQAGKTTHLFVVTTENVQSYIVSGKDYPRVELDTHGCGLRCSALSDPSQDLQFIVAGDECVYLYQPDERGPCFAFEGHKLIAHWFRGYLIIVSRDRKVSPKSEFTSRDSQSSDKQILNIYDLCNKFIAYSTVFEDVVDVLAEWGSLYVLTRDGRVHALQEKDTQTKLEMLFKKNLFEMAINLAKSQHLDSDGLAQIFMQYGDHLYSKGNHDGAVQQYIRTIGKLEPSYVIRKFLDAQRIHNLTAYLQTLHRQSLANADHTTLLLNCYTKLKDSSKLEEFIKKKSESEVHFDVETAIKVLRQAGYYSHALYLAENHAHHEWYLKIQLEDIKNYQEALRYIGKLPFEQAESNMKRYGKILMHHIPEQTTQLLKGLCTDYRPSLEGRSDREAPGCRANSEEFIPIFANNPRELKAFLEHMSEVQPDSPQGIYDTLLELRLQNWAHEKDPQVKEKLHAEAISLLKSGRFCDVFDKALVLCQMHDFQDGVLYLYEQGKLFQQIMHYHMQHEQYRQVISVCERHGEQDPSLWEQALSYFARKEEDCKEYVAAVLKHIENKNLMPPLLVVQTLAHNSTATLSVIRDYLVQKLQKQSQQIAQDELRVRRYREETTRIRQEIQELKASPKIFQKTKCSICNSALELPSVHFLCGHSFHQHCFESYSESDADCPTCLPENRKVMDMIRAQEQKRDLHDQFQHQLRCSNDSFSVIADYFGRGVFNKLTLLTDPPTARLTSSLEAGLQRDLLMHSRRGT
UniProt Q9H1H9: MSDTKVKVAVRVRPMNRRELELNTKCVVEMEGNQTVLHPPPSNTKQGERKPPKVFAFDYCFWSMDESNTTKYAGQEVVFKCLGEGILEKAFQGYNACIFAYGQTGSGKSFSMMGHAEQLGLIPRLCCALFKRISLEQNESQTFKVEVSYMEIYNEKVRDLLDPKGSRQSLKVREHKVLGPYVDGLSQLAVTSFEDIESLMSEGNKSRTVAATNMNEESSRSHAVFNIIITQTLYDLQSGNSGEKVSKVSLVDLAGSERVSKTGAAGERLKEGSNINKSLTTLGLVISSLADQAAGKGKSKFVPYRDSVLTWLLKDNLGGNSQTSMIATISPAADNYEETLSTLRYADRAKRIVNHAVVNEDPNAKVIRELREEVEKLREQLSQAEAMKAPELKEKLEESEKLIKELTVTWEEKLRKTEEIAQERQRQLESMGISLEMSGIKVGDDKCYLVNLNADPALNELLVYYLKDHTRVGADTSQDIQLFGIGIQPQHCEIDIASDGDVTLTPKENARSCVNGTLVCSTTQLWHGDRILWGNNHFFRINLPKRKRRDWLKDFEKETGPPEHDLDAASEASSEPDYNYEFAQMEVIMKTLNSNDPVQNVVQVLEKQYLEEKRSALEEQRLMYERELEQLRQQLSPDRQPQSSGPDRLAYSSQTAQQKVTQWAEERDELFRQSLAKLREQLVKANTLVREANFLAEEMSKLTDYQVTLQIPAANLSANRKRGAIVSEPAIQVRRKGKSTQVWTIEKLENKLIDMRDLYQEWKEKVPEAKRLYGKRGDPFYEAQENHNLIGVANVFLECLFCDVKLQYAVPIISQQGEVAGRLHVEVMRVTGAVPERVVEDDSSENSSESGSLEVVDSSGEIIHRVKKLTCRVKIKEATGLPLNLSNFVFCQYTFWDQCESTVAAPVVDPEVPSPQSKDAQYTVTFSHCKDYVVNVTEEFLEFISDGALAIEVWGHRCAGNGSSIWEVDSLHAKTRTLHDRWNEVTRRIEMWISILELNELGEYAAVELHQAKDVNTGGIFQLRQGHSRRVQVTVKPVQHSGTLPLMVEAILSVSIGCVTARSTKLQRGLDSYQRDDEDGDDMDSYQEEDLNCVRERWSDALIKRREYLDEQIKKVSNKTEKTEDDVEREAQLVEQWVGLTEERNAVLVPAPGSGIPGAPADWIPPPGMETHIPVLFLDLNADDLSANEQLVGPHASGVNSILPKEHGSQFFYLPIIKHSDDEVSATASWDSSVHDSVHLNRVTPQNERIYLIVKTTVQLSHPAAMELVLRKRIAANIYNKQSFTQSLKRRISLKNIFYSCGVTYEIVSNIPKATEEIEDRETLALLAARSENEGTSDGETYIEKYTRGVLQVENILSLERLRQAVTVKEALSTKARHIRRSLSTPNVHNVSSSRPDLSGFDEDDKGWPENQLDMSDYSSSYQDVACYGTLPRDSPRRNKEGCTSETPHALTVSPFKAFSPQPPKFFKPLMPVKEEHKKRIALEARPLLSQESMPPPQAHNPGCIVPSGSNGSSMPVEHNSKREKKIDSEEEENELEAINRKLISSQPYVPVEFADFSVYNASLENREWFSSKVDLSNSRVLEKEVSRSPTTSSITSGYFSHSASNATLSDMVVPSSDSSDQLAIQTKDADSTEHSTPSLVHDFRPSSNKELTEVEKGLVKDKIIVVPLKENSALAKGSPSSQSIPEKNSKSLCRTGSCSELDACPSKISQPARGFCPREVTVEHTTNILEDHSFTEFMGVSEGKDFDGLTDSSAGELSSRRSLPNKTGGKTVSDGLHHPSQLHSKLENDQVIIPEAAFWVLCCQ

Some of the results follow. Most entries show no effect beyond the scatter of the controls.

Compound in this experiment: CN[C@@H]1C[C@H]2O[C@@](C)([C@@H]1OC)n1c3ccccc3c3c4c(c5c6ccccc6n2c5c31)C(=O)NC4 [staurosporine]
In words: log2 fold change of tryptic peptide abundance, ligand vs vehicle (limited proteolysis) (log2 ratio); higher = more trypsin-susceptible (destabilized). The settings on record: ligand concentration: 20 uM; sample: K562 cleared lysate; digestion: 4 min, 22 C (HT-PELSA RT4min, Orbitrap Astral).
“YIPF3 (peptide sequence: QVADQMWQAGKR, peptide start residue: 92) (UniProt Q9GZM5)”: the log2 fold change is -0.0959.

With “PPA2 (peptide sequence: EENGIPMKK, peptide start residue: 74) (UniProt Q9H2U2)”, the log2 fold change was 0.391.

Turning to “BOLA2 (peptide sequence: VLVVSAKFEGKPLLQR, peptide start residue: 37) (UniProt Q9H3K6)”, the log2 fold change is -0.156.

As for “SRXN1 (peptide sequence: LVQSTLSDLR, peptide start residue: 117) (UniProt Q9BYN0)”, the log2 fold change came to 0.149.

As to “ITPA (peptide sequence: KLEEVVQILGDKFPCTLVAQK, peptide start residue: 19) (UniProt Q9BY32)”, the log2 fold change is 0.309.

In the case of “MMADHC (peptide sequence: LVSYLPGFCSLVK, peptide start residue: 11) (UniProt Q9H3L0)”, the log2 fold change was -0.371.

Turning to “UBE2O (peptide sequence: DHSMEDPDK, peptide start residue: 409) (UniProt Q9C0C9)”, the log2 fold change was 0.749.

As to “ENKD1 (peptide sequence: LDLLTSDR, peptide start residue: 40) (UniProt Q9H0I2)”, the log2 fold change was 0.172.

Take “UniProt Q9GZZ1 (peptide sequence: RIEPADAHVLQK, peptide start residue: 141)”: the log2 fold change is -0.198.

Take “UniProt Q9H320 (peptide sequence: SSSQPSPSDPK, peptide start residue: 22)”: the log2 fold change was -0.0896.

For “ZNF407 (peptide sequence: GVQEDPVLGNK, peptide start residue: 1296) (UniProt Q9C0G0)”, the log2 fold change is -0.479.

On to “CEP295 (peptide sequence: SESAEHTIPSLFLPK, peptide start residue: 1635) (UniProt Q9C0D2)”, for which the log2 fold change amounted to 0.485.

In the case of “UniProt Q9BWW9 (peptide sequence: LEQELDR, peptide start residue: 336)”, the log2 fold change turned out to be 0.0246.

Take “FAM126A (peptide sequence: LIYVSER, peptide start residue: 491) (UniProt Q9BYI3)”: the log2 fold change is 0.182.

On to “ZNF106 (peptide sequence: SLSESSVIMDR, peptide start residue: 859) (UniProt Q9H2Y7)”, for which the log2 fold change was found to be 0.292.

For the target “TWSG1 (peptide sequence: STVEELHEPIPSLFR, peptide start residue: 91) (UniProt Q9GZX9)”, the log2 fold change was -0.0524.

In the case of “MFF (peptide sequence: GGSAAATSNPHHDNVR, peptide start residue: 256) (UniProt Q9GZY8)”, the log2 fold change was determined as 0.339.

Regarding “WDR13 (peptide sequence: MEDFEDDPR, peptide start residue: 93) (UniProt Q9H1Z4)”, the log2 fold change was found to be 0.105.

For the target “XPO4 (peptide sequence: TSNIGLSMEFHGNCK, peptide start residue: 173) (UniProt Q9C0E2)”, the log2 fold change was -0.415.

Take “SRR (peptide sequence: AVVTHSSGNHGQALTYAAK, peptide start residue: 78) (UniProt Q9GZT4)”: the log2 fold change was -0.189.

“WNK1 (peptide sequence: SGSGGGSAKEPQEER, peptide start residue: 183) (UniProt Q9H4A3)”: the log2 fold change was -0.254.

Take “DNTTIP1 (peptide sequence: EGPKWDPAR, peptide start residue: 198) (UniProt Q9H147)”: the log2 fold change came to 0.395.

“SLC38A1 (peptide sequence: RSLTNSHLEK, peptide start residue: 51) (UniProt Q9H2H9)”: the log2 fold change was -0.129.

Turning to “CSTF2T (peptide sequence: GGTLLSVTGEVEPR, peptide start residue: 339) (UniProt Q9H0L4)”, the log2 fold change is -0.265.

“RBM38 (peptide sequence: IFVGGLPYHTTDASLRK, peptide start residue: 36) (UniProt Q9H0Z9)”: the log2 fold change is -0.846.

Turning to “XRN2 (peptide sequence: KPAAVLKPSDWEK, peptide start residue: 776) (UniProt Q9H0D6)”, the log2 fold change came out at 0.758.

As for “ATG5 (peptide sequence: LFRPVAADGQLHTLGDLLK, peptide start residue: 202) (UniProt Q9H1Y0)”, the log2 fold change was -0.289.

As to “UniProt Q9H3N1 (peptide sequence: LLSESAQPLK, peptide start residue: 224)”, the log2 fold change was -0.0582.

As for “VPS11 (peptide sequence: DSSKLEEFIK, peptide start residue: 466) (UniProt Q9H270)”, the log2 fold change was -0.841.

As to “GGNBP2 (peptide sequence: EVLSALSQLVPCVGCR, peptide start residue: 78) (UniProt Q9H3C7)”, the log2 fold change stood at 0.365.

On to “EIF2A (peptide sequence: SPDLAPTPAPQSTPR, peptide start residue: 506) (UniProt Q9BY44)”, for which the log2 fold change is -0.316.

On to “NIF3L1 (peptide sequence: ALMQVVDFLSR, peptide start residue: 217) (UniProt Q9GZT8)”, for which the log2 fold change is -0.0955.

In the case of “KIF13A (peptide sequence: TLNSNDPVQNVVQVLEK, peptide start residue: 591) (UniProt Q9H1H9)”, the log2 fold change was -0.456.

For the target “SLC12A5 (peptide sequence: HLPGEDVK, peptide start residue: 33) (UniProt Q9H2X9)”, the log2 fold change stood at 0.11.

For “PNN (peptide sequence: KMNALFEGR, peptide start residue: 262) (UniProt Q9H307)”, the log2 fold change was -0.295.

“RAB11FIP5 (peptide sequence: GGPILGASPHHSSSGEEK, peptide start residue: 487) (UniProt Q9BXF6)”: the log2 fold change turned out to be 0.161.

With “UniProt Q9GZU8 (peptide sequence: VGISQENKK, peptide start residue: 122)”, the log2 fold change was found to be 0.19.
